In this test the test system is NCI-H196 complex spheroid viability. Briefly: Anticancer human tumor NCI-H196 cell line growth inhibition [LSD1].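 Further: spheroids exposed to agents for 7 days before readout; 100% = DMSO vehicle control viability.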 The note with it: active compounds read low. From the text:
Multicellular complex tumor spheroid response to LSD1 Inhibitor Iadademstat in combination with a variety of drugs and investigational agents in selected tumor cell lines
The current study was undertaken to assess response to LSD1 inhibitors in combination with standard-of-care drugs and investigational agents in solid tumor complex spheroid models as well as in the K-562 leukemia. Complex spheroids include a stromal component modeled by human endothelial cells (HUVEC) and fibroblasts modeled by human mesenchymal stem cells (MSCs). The concentration ranges selected for each drug and investigational agent were based upon clinically achievable concentrations if the clinical Cmax of the agent was known.
Compounds. The drugs and investigational agents used in this study are listed on Table 1. All of the agents used, including staurosporine (NSC755774) and gemcitabine (NSC613327), were obtained from the Developmental Therapeutics Program, NCI. FDA-approved anticancer drugs are available from the NCI at http://dtp.nci.nih.gov/branches/dscb/oncology_drugset_explanation.html. Drugs and investigational agents were >95% pure by proton nuclear magnetic resonance (NMR) and liquid chromatography/mass spectrometry (LC/MS). Stock solutions were prepared at 400x in DMSO, stored at -70 degrees C, and diluted in fresh medium prior to their use. The final concentration of DMSO in cell culture wells never exceeded 0.25% (v/v). The FDA-approved anticancer drug set is available from the Developmental Therapeutics Program at https://dtp.cancer.gov/organization/dscb/obtaining/available_plates.htm. All drugs and investigational agents were tested over a range starting from a high concentration at or near the clinical Cmax and decreasing in half-log increments. If the clinical Cmax for an agent had not been determined, the highest concentration tested was 10 microM.
Cell Lines. […]

Further values from the same series stand in other lists.

With `NC1CC1c1ccc(-c2cccc(O)c2)cc1` (stereo not drawn), the viability, T/C (compound 0.1 µM) is 95.5% [middle of 25 runs].

Consider `NC1CCC(NC2CC2c2ccccc2)CC1` (stereo not drawn), for which the viability, T/C by setting is: (compound 0.316 µM) 99.2% [middle of 23 runs]; (compound 10 µM) 88.9%.
